Among all 300,000 compounds or so, about 5,400 (1.8%) were called active. The inconclusive results got no clear call from the source; some entries with a clear call stand among them for comparison. The call rests on the fitted dose curve; tested in HEK293 cells. A potency beside an inconclusive call is a rough fit, not a confirmed value.
Assay: qHTS for inhibitors of binding or entry into cells for Marburg Virus
Conditions: Marburg virus pseudotyped entry inhibition, cell reporter; series mostly up to 37.8 µM
For `O=C(NCC1CCCO1)/C(=C\c1ccco1)NC(=O)c1ccc(Cl)cc1` (stereo not given), the Potency was inconclusive: 29.1 µM [activator, single point].
In the case of `CC(=O)Nc1ccc(-c2csc(NC(=O)Cc3cccc(F)c3)n2)cc1`, the Potency is reported as inconclusive: 35.5 µM [inhibitor, single point].
For `COc1ccc(C)cc1S(=O)(=O)N1CCN(c2cccc(C(F)(F)F)c2)CC1`, the Potency was inconclusive: 11.2 µM [inhibitor, partial curve].
With `CCc1n[nH]c(=S)n1/N=C/c1ccc(N(C)c2ccccc2)cc1` the Potency was inconclusive: 22.4 µM [inhibitor, single point].
In the case of `O=C(NCC(c1ccco1)N1CCN(c2ccc(F)cc2)CC1)c1ccc2c(c1)OCO2` (stereo not given), the Potency is reported as inconclusive: 35.5 µM [inhibitor, single point].
In the case of `Cc1cc(C(=O)O)ccc1N=Cc1c(O)ccc2ccccc12`, the Potency is reported as “inactive”.
With `C[C@H](NC(=O)OC(C)(C)C)c1nnc(SCc2ccc(Cl)cc2Cl)o1` the Potency was inconclusive: 35.5 µM [inhibitor, single point].
In the case of `O=C(COC(=O)c1nc(Cl)ccc1Cl)NC1CCS(=O)(=O)C1` (stereo not given), the Potency is reported as “inactive”.
For `Cc1ccc2[nH]c3c(c2c1)CN(C(=O)CN1c2ccc(F)cc2CCC1C)CC3` (stereo not given), the Potency was inconclusive: 11.6 µM [inhibitor, partial curve, poor fit].
With `COC(=O)C(C(C)=O)[C@@H](NC(=O)NCc1ccccc1)c1ccccc1` (stereo not given in full) the Potency was “inactive”.
With `Cn1c2c(c(=O)c3ccccc31)CCC(C)(C)O2` the Potency was inconclusive: 29.1 µM [activator, single point].
In the case of `CCC(=O)c1ccc(OCC(O)Cn2nnc3ccccc32)cc1` (stereo not given), the Potency is reported as inconclusive: 5.62 µM [activator, single point].
With `COc1ccc(OC)c(CNC(=O)C(C)n2nc(C)c3c(C)n(-c4ccccc4)nc3c2=O)c1` (stereo not given) the Potency was inconclusive: 7.94 µM [inhibitor, partial curve, poor fit].
With `COc1ccc(C(C)C)cc1S(=O)(=O)NCCc1c(C)[nH]c2c(Cl)cccc12` the Potency was inconclusive: 7.94 µM [inhibitor, partial curve, poor fit].
In the case of `O=C1C(Nc2cccc(O)c2)=C(N2CCCCC2)C(=O)c2ccccc21`, the Potency is reported as inconclusive: 29.1 µM [inhibitor, single point].
With `Cc1sc(NC(=O)c2cccs2)c(C(=O)OC(C)C)c1C` the Potency was inconclusive: 6.51 µM [inhibitor, single point].
For `COc1cc(C2CC(=O)N3CN(c4ccccc4C)CSC3=C2C#N)cc(OC)c1OC` (stereo not given), the Potency was “inactive”.
For `CCn1c(SCc2ccccc2)nnc1-c1cccs1`, the Potency was “inactive”.
With `CCN(CC(=O)Nc1cc(Cl)ccc1C)C(=O)CN1C(=O)NC(CC)(c2ccccc2)C1=O` (stereo not given) the Potency was “inactive”.
With `O=C(CCCn1c(=O)c2ccccc2n(CC(=O)NCc2ccco2)c1=O)NCc1ccco1` the Potency was inconclusive: 2.24 µM [activator, partial curve, poor fit].
For `C/C=C/c1ccc(OCC(=O)OCc2csc(CC(=O)Nc3ccccc3C)n2)c(OC)c1`, the Potency was “inactive”.
For `COc1ccc(NC(=O)CN2C(=O)C(c3ccccc3)=NC23CCC(C)CC3)cc1Cl` (stereo not given), the Potency was active: 20 µM.
With `N=C(N)SCCc1ccc(CCSC(=N)N)cc1` the Potency was inconclusive: 23.1 µM [activator, single point].
In the case of `Cc1cc(C(=O)Nc2cccc(C(=O)O)c2)oc1C`, the Potency is reported as inconclusive: 5.62 µM [inhibitor, full curve, poor fit].
In the case of `O=C(NCc1ccccc1Cl)C1CCCN1S(=O)(=O)c1ccccc1F` (stereo not given), the Potency is reported as inconclusive: 11.2 µM [inhibitor, partial curve, poor fit].
In the case of `CCOC(=O)CN1C(=O)SC(Nc2ccc(C)cc2)C1=O` (stereo not given), the Potency is reported as inconclusive: 3.98 µM [activator, single point].
In the case of `CC1CCCC(C)N1/N=C/c1ccccc1Br` (stereo not given), the Potency is reported as inconclusive: 0.447 µM [inhibitor, partial curve, poor fit].
For `COc1cccc(/C=N/Nc2nccnc2Cl)c1O`, the Potency was active: 1.64 µM.
For `C/C(=N\NC(=O)CCCOc1ccc(Cl)cc1C)c1ccc(C)o1`, the Potency was inconclusive: 0.316 µM [inhibitor, full curve, poor fit].
For `COC(=O)c1cc2n(n1)CCN(Cc1ccccc1Cl)C2=O`, the Potency was “inactive”.
With `CC(C)C(=O)Nc1c2c(nn1-c1ccc([N+](=O)[O-])cc1)CS(=O)(=O)C2` the Potency was “inactive”.
In the case of `Cc1cc(NC(=O)c2c(F)cccc2Cl)no1`, the Potency is reported as “inactive”.
For `CCC1(c2ccc(F)cc2)NC(=O)N(CC(=O)Nc2cccc(S(=O)(=O)N3CCCCC3)c2)C1=O` (stereo not given), the Potency was inconclusive: 5.62 µM [inhibitor, full curve].
For `CC=C(C)[C@H](O)C[Si](C)(C)c1ccccc1`, the Potency was “inactive”.
In the case of `COc1ccc(N(CC(=O)Nc2cc(Cl)ccc2OC)S(=O)(=O)c2c(C)noc2C)cc1`, the Potency is reported as inconclusive: 3.66 µM [inhibitor, full curve].
In the case of `C=CCNC(=S)N/N=C/c1ccc(C)c([N+](=O)[O-])c1`, the Potency is reported as inconclusive: 11.2 µM [inhibitor, partial curve, poor fit].
In the case of `COc1ccc(NP(=O)(Oc2ccccc2OC)Oc2ccccc2OC)cc1`, the Potency is reported as inconclusive: 11.2 µM [inhibitor, partial curve, poor fit].
For `CC(C)(C)c1ccc(NC(=O)N2CCCN(c3c(Cl)cncc3Cl)CC2)cc1`, the Potency was inconclusive: 15.8 µM [inhibitor, single point].
In the case of `Cc1c(N=Cc2cc(Br)cc(Br)c2O)cccc1C(=O)O`, the Potency is reported as inconclusive: 28.2 µM [inhibitor, single point].
In the case of `NC(=O)c1nsc(C(=O)N(c2ccccc2F)C(C(=O)NCc2ccccc2)c2ccc(O)cc2)c1N` (stereo not given), the Potency is reported as “inactive”.
In the case of `Cc1cc2c(=Cc3ccc(N(C)C)cc3)c3ccccc3n2[n+]1C`, the Potency is reported as inconclusive: 1.78 µM [inhibitor, full curve, poor fit].
For `O=S(=O)(CS(=O)(=O)c1ccccc1)c1ccccc1`, the Potency was “inactive”.
For `Cc1cccc(NC(=O)CNC(=O)CSc2nc(N)cc(N)n2)c1C`, the Potency was “inactive”.
With `CCOC(=O)c1sc2ncnc(N3CCN(C(=O)OCC)CC3)c2c1C` the Potency was “inactive”.
In the case of `CC(C)C(c1nnnn1Cc1ccc(F)cc1)N1CCN(c2ccc(O)cc2)CC1` (stereo not given), the Potency is reported as inconclusive: 35.5 µM [inhibitor, single point].
Potency means the concentration at half of the fitted maximal effect.
